Data published in paper PMC7979776.
No constants are given. Whether binding was seen depends on the method and setting. For some assays here: In cells and extracts the contact can be indirect. Some entries that bind do so weakly or less than the wild type. One block for each substance: values may come before it.

Sequences of proteins named here, by UniProt entry; tags and fusion partners are left off. A change or cut given only in a name is not applied to a line headed by its entry. A line that says so, or that is headed by a name, gives the form on record, which may keep a tag or linker. Residues count along the entry.
GST-tagged mutant LDB3-LΔex10 (Ala165Val) (O75112, form named): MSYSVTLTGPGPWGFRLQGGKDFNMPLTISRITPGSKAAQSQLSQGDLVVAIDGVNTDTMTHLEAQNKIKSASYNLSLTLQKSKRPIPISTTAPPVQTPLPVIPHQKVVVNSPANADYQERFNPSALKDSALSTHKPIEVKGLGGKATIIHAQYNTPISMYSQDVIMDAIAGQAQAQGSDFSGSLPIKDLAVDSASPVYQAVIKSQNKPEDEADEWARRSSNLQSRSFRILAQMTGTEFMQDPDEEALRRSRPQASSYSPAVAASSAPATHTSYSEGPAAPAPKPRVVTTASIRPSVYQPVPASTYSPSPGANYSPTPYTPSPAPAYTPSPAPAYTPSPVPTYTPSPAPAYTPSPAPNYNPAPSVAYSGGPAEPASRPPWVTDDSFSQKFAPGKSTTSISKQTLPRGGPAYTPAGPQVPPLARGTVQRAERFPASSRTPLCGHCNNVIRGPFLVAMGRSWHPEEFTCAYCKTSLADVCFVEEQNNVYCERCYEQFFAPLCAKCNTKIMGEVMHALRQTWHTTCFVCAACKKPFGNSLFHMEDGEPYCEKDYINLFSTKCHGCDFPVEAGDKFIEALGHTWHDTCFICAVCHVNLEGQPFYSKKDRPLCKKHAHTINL
FLAG-tagged human skeletal muscle WT LDB3-LΔex10 (O75112, form named): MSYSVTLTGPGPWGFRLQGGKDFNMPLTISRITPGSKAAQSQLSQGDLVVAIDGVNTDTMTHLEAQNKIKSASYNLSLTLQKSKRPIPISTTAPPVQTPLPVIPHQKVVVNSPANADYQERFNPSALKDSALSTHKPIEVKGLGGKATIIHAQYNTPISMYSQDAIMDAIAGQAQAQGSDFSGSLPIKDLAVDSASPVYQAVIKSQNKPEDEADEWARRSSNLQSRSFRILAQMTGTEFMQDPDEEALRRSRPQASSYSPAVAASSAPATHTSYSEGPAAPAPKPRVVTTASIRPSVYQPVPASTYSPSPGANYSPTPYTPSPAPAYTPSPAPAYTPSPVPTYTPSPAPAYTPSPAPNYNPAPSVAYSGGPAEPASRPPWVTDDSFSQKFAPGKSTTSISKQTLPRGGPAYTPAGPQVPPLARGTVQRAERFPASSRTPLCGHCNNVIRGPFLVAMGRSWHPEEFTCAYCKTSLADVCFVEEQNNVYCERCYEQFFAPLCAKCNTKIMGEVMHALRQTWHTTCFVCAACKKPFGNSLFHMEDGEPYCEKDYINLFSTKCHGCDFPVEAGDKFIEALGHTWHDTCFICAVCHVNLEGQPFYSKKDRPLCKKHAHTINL
UniProt Q9JLV1: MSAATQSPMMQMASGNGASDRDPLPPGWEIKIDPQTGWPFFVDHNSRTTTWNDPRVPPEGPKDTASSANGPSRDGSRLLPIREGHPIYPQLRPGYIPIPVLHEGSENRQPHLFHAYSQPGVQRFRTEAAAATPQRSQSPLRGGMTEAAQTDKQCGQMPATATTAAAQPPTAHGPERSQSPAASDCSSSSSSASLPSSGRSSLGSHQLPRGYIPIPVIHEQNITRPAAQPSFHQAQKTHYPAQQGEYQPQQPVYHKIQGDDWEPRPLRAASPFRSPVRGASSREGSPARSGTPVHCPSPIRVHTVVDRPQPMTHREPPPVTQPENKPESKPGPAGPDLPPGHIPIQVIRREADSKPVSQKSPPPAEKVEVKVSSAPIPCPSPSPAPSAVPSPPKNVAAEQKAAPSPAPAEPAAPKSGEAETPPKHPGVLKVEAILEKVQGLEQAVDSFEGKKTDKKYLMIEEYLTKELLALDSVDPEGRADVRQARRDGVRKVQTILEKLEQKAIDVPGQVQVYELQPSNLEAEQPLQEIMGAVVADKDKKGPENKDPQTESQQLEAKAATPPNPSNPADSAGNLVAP
HSPA8 internal region (aa 237-468), prey clones of the yeast two-hybrid screen (P11142, residues 237-468): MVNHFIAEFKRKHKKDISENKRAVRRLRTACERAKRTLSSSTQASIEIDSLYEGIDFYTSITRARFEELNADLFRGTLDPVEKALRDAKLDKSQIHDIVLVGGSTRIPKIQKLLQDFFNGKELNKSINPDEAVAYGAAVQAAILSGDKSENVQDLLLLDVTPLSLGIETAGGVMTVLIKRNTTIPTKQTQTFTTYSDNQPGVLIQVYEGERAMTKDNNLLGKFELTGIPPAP
UniProt Q8VHX6: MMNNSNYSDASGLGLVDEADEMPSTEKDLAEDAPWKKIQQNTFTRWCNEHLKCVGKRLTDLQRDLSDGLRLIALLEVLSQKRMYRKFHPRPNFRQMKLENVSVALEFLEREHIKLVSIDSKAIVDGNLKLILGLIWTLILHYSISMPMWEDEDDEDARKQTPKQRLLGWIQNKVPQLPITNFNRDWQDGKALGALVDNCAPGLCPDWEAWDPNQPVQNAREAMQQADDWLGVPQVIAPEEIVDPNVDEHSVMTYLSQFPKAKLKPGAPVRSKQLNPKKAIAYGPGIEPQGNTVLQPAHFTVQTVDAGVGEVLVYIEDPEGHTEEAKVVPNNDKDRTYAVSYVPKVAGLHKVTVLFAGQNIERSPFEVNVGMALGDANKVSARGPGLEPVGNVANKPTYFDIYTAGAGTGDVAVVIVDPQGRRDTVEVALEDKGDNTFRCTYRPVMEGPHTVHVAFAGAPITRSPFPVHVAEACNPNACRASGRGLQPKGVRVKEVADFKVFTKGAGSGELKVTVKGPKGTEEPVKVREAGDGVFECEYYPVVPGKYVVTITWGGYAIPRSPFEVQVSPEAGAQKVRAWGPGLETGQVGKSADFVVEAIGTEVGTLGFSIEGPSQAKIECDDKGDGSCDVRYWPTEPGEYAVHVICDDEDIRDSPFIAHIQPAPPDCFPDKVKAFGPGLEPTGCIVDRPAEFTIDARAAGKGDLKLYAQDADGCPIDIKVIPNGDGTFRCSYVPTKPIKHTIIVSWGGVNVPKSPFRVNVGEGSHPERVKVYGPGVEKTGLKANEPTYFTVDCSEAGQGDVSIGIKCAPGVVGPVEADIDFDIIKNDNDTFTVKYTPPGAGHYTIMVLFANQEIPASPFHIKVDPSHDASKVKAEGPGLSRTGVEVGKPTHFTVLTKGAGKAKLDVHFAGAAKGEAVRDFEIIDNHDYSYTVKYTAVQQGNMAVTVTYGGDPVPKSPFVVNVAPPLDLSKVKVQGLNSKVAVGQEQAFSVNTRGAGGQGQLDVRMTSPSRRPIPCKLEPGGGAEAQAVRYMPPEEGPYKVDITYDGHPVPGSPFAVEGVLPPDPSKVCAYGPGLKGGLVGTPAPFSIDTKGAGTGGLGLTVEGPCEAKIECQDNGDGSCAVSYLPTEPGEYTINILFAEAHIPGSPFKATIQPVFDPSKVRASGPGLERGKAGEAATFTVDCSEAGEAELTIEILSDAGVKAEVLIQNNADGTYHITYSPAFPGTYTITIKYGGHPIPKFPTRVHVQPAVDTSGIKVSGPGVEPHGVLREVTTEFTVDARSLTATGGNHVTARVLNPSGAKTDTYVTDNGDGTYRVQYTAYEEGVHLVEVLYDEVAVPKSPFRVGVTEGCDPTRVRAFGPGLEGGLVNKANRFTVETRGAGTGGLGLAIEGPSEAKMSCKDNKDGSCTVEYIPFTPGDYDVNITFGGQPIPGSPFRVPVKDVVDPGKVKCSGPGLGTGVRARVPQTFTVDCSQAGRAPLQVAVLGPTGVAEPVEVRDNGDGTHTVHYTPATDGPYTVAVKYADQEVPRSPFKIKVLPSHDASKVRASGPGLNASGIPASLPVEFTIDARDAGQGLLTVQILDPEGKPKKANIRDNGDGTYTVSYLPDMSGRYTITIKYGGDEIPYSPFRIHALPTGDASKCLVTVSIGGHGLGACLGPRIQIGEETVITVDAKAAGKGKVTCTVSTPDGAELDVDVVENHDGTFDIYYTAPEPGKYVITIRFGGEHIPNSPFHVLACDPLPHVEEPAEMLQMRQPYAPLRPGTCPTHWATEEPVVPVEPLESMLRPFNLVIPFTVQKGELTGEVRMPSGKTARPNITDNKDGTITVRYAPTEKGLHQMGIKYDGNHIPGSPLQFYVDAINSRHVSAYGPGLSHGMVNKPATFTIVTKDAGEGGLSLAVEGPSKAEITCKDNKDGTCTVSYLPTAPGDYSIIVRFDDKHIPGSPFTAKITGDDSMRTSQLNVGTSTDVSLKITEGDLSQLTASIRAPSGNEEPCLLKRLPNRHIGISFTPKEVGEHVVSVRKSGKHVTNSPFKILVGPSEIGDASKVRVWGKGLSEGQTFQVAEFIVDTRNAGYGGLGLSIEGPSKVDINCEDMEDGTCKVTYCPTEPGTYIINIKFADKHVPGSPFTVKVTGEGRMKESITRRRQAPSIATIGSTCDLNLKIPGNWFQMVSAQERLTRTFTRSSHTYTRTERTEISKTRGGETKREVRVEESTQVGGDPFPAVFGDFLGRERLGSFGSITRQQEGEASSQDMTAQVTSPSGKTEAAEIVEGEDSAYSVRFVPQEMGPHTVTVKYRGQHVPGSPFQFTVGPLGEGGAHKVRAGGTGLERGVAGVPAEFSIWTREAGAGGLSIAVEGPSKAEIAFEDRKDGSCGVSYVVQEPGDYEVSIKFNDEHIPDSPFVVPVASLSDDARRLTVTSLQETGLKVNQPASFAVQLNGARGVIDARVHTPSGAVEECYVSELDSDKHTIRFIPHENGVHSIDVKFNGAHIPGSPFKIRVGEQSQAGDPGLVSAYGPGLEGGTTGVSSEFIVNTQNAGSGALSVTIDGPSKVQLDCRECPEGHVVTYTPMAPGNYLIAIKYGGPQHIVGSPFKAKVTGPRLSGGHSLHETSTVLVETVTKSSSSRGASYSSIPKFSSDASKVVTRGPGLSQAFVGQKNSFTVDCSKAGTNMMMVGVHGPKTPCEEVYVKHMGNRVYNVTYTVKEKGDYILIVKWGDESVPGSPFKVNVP

Tests used:
[1] = biological target: GST-tagged mutant LDB3-LΔex10 (Ala165Val) (UniProt O75112); assay: pull-down; recombinant GST-tagged LDB3 proteins as bait; vastus muscle lysates of three wildtype mice; immunoblot; only the target purified
[2] = biological target: FLAG-tagged human skeletal muscle Ala165Val LDB3-LΔex10 (human) (UniProt O75112); assay: co-IP; FLAG antibody; lysates of transfected COS-7 cells; detection with anti-FLAG and anti-HA antibodies
[3] = biological target: FLAG-tagged human skeletal muscle WT LDB3-LΔex10 (human) (UniProt O75112); assay: as above
[4] = biological target: human LDB3 peptide encoded by exons 8 and 11 (amino acid 221-320), bait of the yeast two-hybrid screen (human) (UniProt O75112); assay: two-hybrid; screen by Hybrigenics Services; LDB3 aa 221-320 as bait against a human skeletal muscle cDNA library

binding [1]: binds
Substance: BAG3, endogenous in mouse vastus muscle (from UniProt Q9JLV1 1-577)

binding [2]: binds
binding [3]: binds
Substance: HA-tagged full-length human HSPA8 (from UniProt P11142-1 1-646)

binding [4]: binds
Substance: HSPA8 internal region (aa 237-468), prey clones of the yeast two-hybrid screen (from UniProt P11142-1 237-468) (domain or fragment)

binding [1]: binds
Substance: filamin C, endogenous in mouse skeletal muscle (from UniProt Q8VHX6 1-2726)
